In all, about 33,000 sequences were measured (“E-score (-0.5 to 0.5)”: median about -0.0059, highest 2% from about 0.26 on). Some of the results follow.
target: T1, Cin5 (UniProt P40917); test: PBM E-score (8-mer binding enrichment) (E-score (-0.5 to 0.5)); higher = stronger / more preferred TF binding; details: protein concentration: 100 nM; construct: GST-full length
T1 sequence: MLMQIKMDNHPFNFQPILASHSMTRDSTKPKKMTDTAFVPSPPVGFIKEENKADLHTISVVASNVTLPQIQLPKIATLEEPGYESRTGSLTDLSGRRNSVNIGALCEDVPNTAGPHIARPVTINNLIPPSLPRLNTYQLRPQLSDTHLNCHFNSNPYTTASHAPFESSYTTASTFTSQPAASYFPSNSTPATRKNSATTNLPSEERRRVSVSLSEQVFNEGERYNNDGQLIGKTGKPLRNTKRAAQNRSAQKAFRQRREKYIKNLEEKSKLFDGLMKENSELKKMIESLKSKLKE
Method in brief: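 Yeast transcription factors, full-length or as DNA-binding domains, were expressed with a GST tag using PURExpress in vitro transcription/translation. At about 100-200 nM they were applied to universal all-10-mer Agilent arrays, double-stranded by primer extension on fresh or once-stripped slides. Fluorescent anti-GST detected bound protein, and masliner normalised the scans. E-scores for ungapped eight-base words, pooled with reverse complements, came from the Universal PBM Analysis Suite.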

Sequence	PBM E-score
GAACGACC	-0.243
TCATGACA	0.14
ACAACCAG	-0.00422
ATGTACCC	0.0966
AATAGAGT	-0.134
CAAGTGAG	-0.036
CAATGTAA	0.236
TAAAACGA	-0.0549
ACATTCCA	0.0993
TGCTTCAA	-0.0201
ACCTGCCA	-0.169
GGCTGCAA	-0.0216
ATCCCAGA	-0.229
CCAAAACA	-0.0204
TCTATGAA	-0.00883
CCACAGAG	-0.0249
CGCGAGAG	-0.016
ACGGAAAA	0.161
AACCGGAC	-0.0222
ATGGTCAC	0.0622
TGTGGTAA	0.124
AGTCACAT	-0.111
TAATCGGA	0.235
ATCCTCGA	0.199
CTCACAAC	0.132

Sequence	PBM E-score
CGTTAAGA	-0.0769
AGGCCGCC	-0.209
ACCGGCCA	-0.281
GAGATCCC	-0.0263
AATGGATC	-0.0157
ACCTCAGA	-0.154
GAGATAAA	0.181
ACCTCTCG	-0.116
AGGCAGTG	0.141
ATGTAGCG	-0.00829
ATAGAGGA	-0.201
GAGGTCGA	-0.0416
GTGGATAA	0.14
AAACAACG	0.148
AGGCCTTG	-0.231
CGGTAGAG	-0.132
CGGCCCGC	-0.0702
AGGCTGGC	-0.274
AGAAGCCT	0.0218
AAAATATC	0.189
AGAATAAC	0.00937
CGGTACAA	0.0685
AGTCCATG	0.0417
GCTGATCC	0.0274
ACCTGAAC	-0.121

Sequence	PBM E-score
GCCGTCGA	-0.0378
TCACCCAA	0.168
CAACCACC	-0.0537
GGCTCCCA	-0.288
ATGGAGGG	-0.207
ATTGCCGC	-0.152
AAGATGGG	-0.0928
CGTTCTAA	0.00436
GCAGCTAC	-0.0161
AAGATTTA	0.137
CGCCTAAA	-0.0895
AGGTCAGC	0.0015
CCCATGCG	-0.0851
TATATCAA	0.196
AATACTTG	0.103
ATAGATCG	-0.0276
CACGCAGC	-0.173
AGTACGTC	0.105
CAAGTTAG	0.0323
CTCTAAAA	-0.125
GAGTTTCA	-0.0974
CCACGCGC	-0.224
GCGTGTAC	-0.0736
CCGTTGTA	0.095
GATTTCGC	0.262

Sequence	PBM E-score
AGTGACCC	-0.0299
ATTGATCA	0.0329
AATATCGC	0.17
CGCGATTA	0.263
CCCAAACA	0.174
CTTTTTCC	0.0268
CCGCCACA	-0.0735
AGATATAT	0.18
CGCCAACC	-0.264
GGTAGAAA	-0.111
GCATCTCC	-0.0341
AGCGAAAC	0.146
ACACTCTC	0.117
AGGGTATC	-0.0168
AACACGTC	-0.111
AACAACCT	0.0198
GGGACCAA	-0.018
GCTCAGCC	-0.182
AAGGATTC	-0.117
CAAACTAA	0.266
AGTAGTAG	0.0173
CCTTACAA	-0.175
AATATACT	0.196
ACTTGCCC	-0.0792
CTCCGCCA	-0.171

Sequence	PBM E-score
GAGGGGCC	-0.223
CGATCCCG	-0.00408
TATGGTGA	0.0779
AGCGTGGC	-0.0859
CTGTCGGC	-0.153
CCAGCTGC	-0.204
GATTTGAC	-0.0405
AATCTATG	0.183
ATAAGCTC	0.201
ACACGCTG	0.0059
CGAAACCC	0.03
CATAGTTA	0.0725
ACTTCGCT	-0.0395
ATAGCCCA	0.171
CCCCGCGA	0.05
CCCTGACA	0.0252
CGGAGGTC	-0.0513
CAATTTGA	0.0572
TACAACGA	0.153
GAGGACAA	-0.0719
CAAGTGTA	0.0979
GCGCGCAA	0.217
CTACTATA	0.139
ACAAGGAA	0.00248
AAGTTGGT	0.165

7 entries picked at random from those above:
Sequence	PBM E-score
TAAAACGA	-0.0549
TCTATGAA	-0.00883
ACCGGCCA	-0.281
AGGCTGGC	-0.274
ACCTGAAC	-0.121
GAGGACAA	-0.0719
AGTACGTC	0.105

Further records follow.

Sequence	PBM E-score
ACAATCCC	0.117
AGTACTCA	-0.00067
GTACCGGA	-0.00967
CCGGGATA	0.08
CGCCGTCC	-0.0945
GGGGGTTA	-0.444
CTATGTGC	-0.038
AGTCGTGA	-0.0941
CGGGCGAC	-0.243
AGCATGCG	-0.00219
CCGGTCTC	-0.235
ACTAGAGA	-0.0579
GGGGTTAC	-0.237
CTTGGACC	-0.323
CGGGAATA	0.142
AGCAGAAC	-0.0245
GACCATAC	-0.0542
GGCGACCC	-0.214
CGTATTGC	-0.0339
ACGTTGGC	-0.143
AGCACTTG	-0.244
GACTGGTA	0.0326
AAACGCAG	-0.0729
AAGTTCAG	0.0117
CGCTGACC	-0.0149

Sequence	PBM E-score
AGTTAAGA	0.0329
ACCTTCCC	-0.0216
CTAGCACC	-0.0666
AGACGTCT	-0.169
AAATGTGT	0.177
AGCGAATA	0.0764
TCAATGCA	-0.102
CTGATGTA	0.266
AACTGTAC	-0.0314
GTGAATCA	-0.0693
CCGGCCCC	-0.337
GTTATACA	0.181
ACCTTGAG	-0.0236
GAACAGTA	0.128
GGGTAAAC	0.0797
CAGAATGG	0.147
ACCAGGGT	-0.14
AAATAGGG	0.0008
GGCACTTA	-0.103
CAGTTAGG	0.0747
AGTCTTAG	-0.212
CTCACGGC	-0.0802

Source: the supplement of paper PMC3334620
